Source: PubChem BioAssay AID256 (DTP/NCI, 2004)
The list is a part of this screen's results and no random one: it gathers tests that were run many times, whatever their T/C, doses with no T/C, and many T/C values between a quarter and a half above the control. Further doses and runs are listed elsewhere. T/C gives the treated animals as a percentage of the vehicle group. Some doses have a count of surviving animals in place of a T/C: the source holds a T/C of zero for them, seemingly a mark for toxic or unscored doses. Some survivor counts are full or nearly so, which does not show that the dose was tolerated: survival well below the control is almost never listed, so the zero probably covers shortened survival too. Survivors were counted at the toxicity check, usually on the fifth day, unless a day is given; later deaths do not show. Schedules are NCI's codes, taken here to give the interval after Q, in days (D) or hours (H), and the number of doses after X. Some molecules as drawn cover several salts, stereoisomers or complexes of the source; a dose is that of the sample tested. For survival time, the PubChem record calls one and a half times the control and up active, and a quarter to a half above the control has no call in these data; cut-offs in other NCI protocols can differ. Some entries were tested several times; their values stand side by side, smallest first. Some T/C values carry the count of animals alive at the toxicity check (mostly the fifth day); without a count, all were alive then.

Tested on: CD2F1 mice, L1210 leukemia ip, survival T/C
Experiment: NCI In Vivo Anticancer Drug Screen. Data for tumor model L1210 Leukemia (intraperitoneal) in CD2F1 (CDF1) mice
Details: higher T/C = longer survival
Summary of the method: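 Read-out first: treated-group measurement over vehicle-control measurement, expressed as a ratio. Animals bore a transplanted tumor line and were dosed with compound or vehicle.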

[1] = T/C endpoint: mean survival time, dose: 100.0 mg/kg/injection, schedule: Q04DX003 (ip), vehicle: saline with Tween-80
[2] = T/C endpoint: mean survival time, dose: 200.0 mg/kg/injection, schedule: Q04DX003 (ip), vehicle: saline with Tween-80
[3] = T/C endpoint: mean survival time, dose: 400.0 mg/kg/injection, schedule: Q04DX003 (ip), vehicle: saline with Tween-80
[4] = T/C endpoint: mean survival time, dose: 400.0 mg/kg/injection, schedule: Q01DX009 (ip), vehicle: saline with Tween-80
[5] = T/C endpoint: mean survival time, dose: 100.0 mg/kg/injection, schedule: Q01DX009 (ip), vehicle: saline with Tween-80
[6] = T/C endpoint: mean survival time, dose: 200.0 mg/kg/injection, schedule: Q01DX009 (ip), vehicle: saline with Tween-80
[7] = T/C endpoint: mean survival time, dose: 50.0 mg/kg/injection, schedule: Q01DX001 (ip), vehicle: saline with Tween-80
[8] = T/C endpoint: mean survival time, dose: 200.0 mg/kg/injection, schedule: Q01DX001 (ip), vehicle: saline with Tween-80
[9] = T/C endpoint: mean survival time, dose: 400.0 mg/kg/injection, schedule: Q01DX001 (ip), vehicle: saline with Tween-80

In the case of `O=C1CC2C3=C(CCC3)CCN2C2=C1CC(OC(=O)c1ccccc1)CC2` (stereo not given), the survivor count [1] is reported as 6 of 6, the survivor count [2] is reported as 6 of 6 and the survivor count [3] is reported as 6 of 6.
With `Cc1cc(=O)c2c(=O)[nH][nH]c2[nH]1` the survivor count [4] was 3 of 6.
For `NC1CCCCC1.[I][Pb]([I])([I])[I]`, the survivor count [5] was 5 of 6, the survivor count [6] was 6 of 6 and the survivor count [4] was 5 of 6.
`NC(=S)/N=C\C(CC(O)C(O)C(O)CO)=N\NC(N)=S` (stereo not given) was tested, and the survivor count (T/C endpoint: mean survival time, dose: 12.5 mg/kg/injection, schedule: Q01DX009 (ip), vehicle: saline with Tween-80) was 3 of 3.
`O=C1C(Cl)=C(NCc2ccccc2Cl)C(=O)c2ccccc21` was tested, and the survivor count [7] was 0 of 3.
In the case of `COc1ccc2[nH]c(=O)oc(=O)c2c1`, the survivor count [6] is reported as 3 of 6 and the survivor count [4] is reported as 3 of 6.
`N=c1ncn(C2OC(COP(=O)(O)O)C(O)C2O)c2nc[nH]c12` (stereo not given) was tested, and the survivor count (T/C endpoint: mean survival time, dose: 25.0 mg/kg/injection, schedule: Q01DX005 (ip), vehicle: water) was 6 of 6, the survivor count (T/C endpoint: mean survival time, dose: 50.0 mg/kg/injection, schedule: Q01DX005 (ip), vehicle: water) was 6 of 6 and the survivor count (T/C endpoint: mean survival time, dose: 90.0 mg/kg/injection, schedule: Q01DX005 (ip), vehicle: water) was 3 of 3. For the same compound, the survivor count (T/C endpoint: mean survival time, dose: 100.0 mg/kg/injection, schedule: Q01DX005 (ip), vehicle: water) was 0 of 6, the survivor count (T/C endpoint: mean survival time, dose: 180.0 mg/kg/injection, schedule: Q01DX005 (ip), vehicle: water) was 2 of 3 and the survivor count (T/C endpoint: mean survival time, dose: 200.0 mg/kg/injection, schedule: Q01DX005 (ip), vehicle: water) was 0 of 6.
In the case of `NCS(=O)(=O)O`, the survivor count [8] is reported as 1 of 3 and the survivor count [9] is reported as 0 of 3.
With `CCOC(=O)Nc1cc(Cl)ccc1O` the survivor count [4] was 1 of 6.
With `Cc1ccc(C(C)NC2=NCCO2)c(C)c1` (stereo not given) the survivor count (T/C endpoint: mean survival time, dose: 100.0 mg/kg/injection, schedule: Q04DX002 (ip), vehicle: saline with Tween-80) was 0 of 3.
`COc1ccc(C(Cn2ccnc2)Sc2ccc(Cl)c(Cl)c2)cc1` (stereo not given) was tested, and the survivor count [6] was 0 of 6.
In the case of `CSc1ncc(C(=O)O)c(SC(C)C)n1`, the survivor count [9] is reported as 3 of 6.
`NC(N)=NC(N)=Nc1ccc([As](=O)(O)O)c(O)c1` was tested, and the survivor count (T/C endpoint: mean survival time, dose: 200.0 mg/kg/injection, schedule: Q01DX009 (ip), vehicle: saline sonified) was 1 of 6 and the survivor count (T/C endpoint: mean survival time, dose: 400.0 mg/kg/injection, schedule: Q01DX009 (ip), vehicle: saline sonified) was 0 of 6.
In the case of `Cn1ccc(=Nc2ccc(NC(=O)c3ccc(N=c4ccn(C)c5ccc([N+](=O)[O-])cc45)cc3)cc2)cc1`, the T/C (T/C endpoint: mean survival time, dose: 50.0 mg/kg/injection, schedule: Q01DX009 (ip), vehicle: water) is reported as 129 % of control [5 of 6 alive] and the survivor count (T/C endpoint: mean survival time, dose: 100.0 mg/kg/injection, schedule: Q01DX009 (ip), vehicle: water) is reported as 1 of 6.
With `CCOC(=O)/C(=C/C(C#N)=C/N(C)C)CC` the survivor count (T/C endpoint: mean survival time, dose: 400.0 mg/kg/injection, schedule: Q04DX003 (ip), vehicle: saline sonified) was 6 of 6.
`O=NN(Cc1cccnc1)Cc1cccnc1` was tested, and the survivor count (T/C endpoint: mean survival time, dose: 300.0 mg/kg/injection, schedule: Q01DX001 (ip), vehicle: water) was 0 of 6.
For `O=C1CC23CCCN2CCc2cc4c(cc2C3=C1O)OCO4` (stereo not given), the survivor count (T/C endpoint: mean survival time, dose: 25.0 mg/kg/injection, schedule: Q01DX009 (ip), vehicle: Klucel (hydroxypropylcellulose) (HPC)) was 4 of 5, the survivor count (T/C endpoint: mean survival time, dose: 50.0 mg/kg/injection, schedule: Q01DX009 (ip), vehicle: Klucel (hydroxypropylcellulose) (HPC)) was 2 of 5 and the survivor count (T/C endpoint: mean survival time, dose: 100.0 mg/kg/injection, schedule: Q01DX009 (ip), vehicle: Klucel (hydroxypropylcellulose) (HPC)) was 0 of 5. For the same compound, the survivor count (T/C endpoint: mean survival time, dose: 200.0 mg/kg/injection, schedule: Q01DX009 (ip), vehicle: Klucel (hydroxypropylcellulose) (HPC)) was 0 of 5 and the survivor count (T/C endpoint: mean survival time, dose: 400.0 mg/kg/injection, schedule: Q01DX009 (ip), vehicle: Klucel (hydroxypropylcellulose) (HPC)) was 0 of 5.
`Cc1c2ccccc2c(C)c2c1ccc1ccccc12` was tested, and the T/C (T/C endpoint: mean survival time, dose: 9.37 mg/kg/injection, schedule: Q04DX003 (ip), vehicle: acetone) was 135 % of control, the T/C (T/C endpoint: mean survival time, dose: 18.75 mg/kg/injection, schedule: Q04DX003 (ip), vehicle: acetone) was 146 % of control and the T/C (T/C endpoint: mean survival time, dose: 37.5 mg/kg/injection, schedule: Q04DX003 (ip), vehicle: acetone) was 136 % of control. For the same compound, the survivor count (T/C endpoint: mean survival time, dose: 50.0 mg/kg/injection, schedule: Q01DX009 (ip), vehicle: saline with Tween-80) was 6 of 6, the T/C (T/C endpoint: mean survival time, dose: 55.0 mg/kg/injection, schedule: Q04DX003 (ip), vehicle: Klucel (hydroxypropylcellulose) (HPC)) was 135 % of control and the T/C (T/C endpoint: mean survival time, dose: 85.0 mg/kg/injection, schedule: Q04DX003 (ip), vehicle: Klucel (hydroxypropylcellulose) (HPC)) was 141 % of control. The survivor count [5] was 6 of 6, the survivor count [2] was 6 of 6 and the survivor count [3] was 6 of 6.
With `O=C1C=CC(=O)N1c1ccccc1[N+](=O)[O-]` the survivor count (T/C endpoint: mean survival time, dose: 25.0 mg/kg/injection, schedule: Q04DX003 (ip), vehicle: saline with Tween-80) was 1 of 6, the survivor count [1] was 0 of 6 and the survivor count [2] was 0 of 6. The survivor count [3] was 0 of 6.
In the case of `O=C(CCN1CC1)NCCCCCCCCNC(=O)CCN1CC1`, the survivor count (T/C endpoint: mean survival time, dose: 75.0 mg/kg/injection, schedule: Q01DX001 (ip), vehicle: carboxymethylcellulose (CMC)) is reported as 1 of 6.
In the case of `ON(C(=Nc1ccccc1)c1ccccc1Cl)c1ccccc1`, the survivor count (T/C endpoint: mean survival time, dose: 25.0 mg/kg/injection, schedule: Q01DX009 (ip), vehicle: saline with Tween-80) is reported as 2 of 6, the survivor count (T/C endpoint: mean survival time, dose: 50.0 mg/kg/injection, schedule: Q04DX003 (ip), vehicle: saline) is reported as 1 of 6 and the survivor count (T/C endpoint: mean survival time, dose: 100.0 mg/kg/injection, schedule: Q04DX003 (ip), vehicle: saline) is reported as 0 of 6. The survivor count (T/C endpoint: mean survival time, dose: 200.0 mg/kg/injection, schedule: Q04DX003 (ip), vehicle: saline) was 0 of 6 and the survivor count (T/C endpoint: mean survival time, dose: 400.0 mg/kg/injection, schedule: Q01DX001 (ip), vehicle: saline) was 0 of 6.
`N#CCCP(CCC#N)CCCCP(CCC#N)CCC#N` was tested, and the survivor count [7] was 3 of 6 and the survivor count (T/C endpoint: mean survival time, dose: 100.0 mg/kg/injection, schedule: Q01DX001 (ip), vehicle: saline with Tween-80) was 1 of 6.
For `S=C(NNC(=S)Nc1ccc(Cl)cc1)NNc1ccccc1`, the survivor count (T/C endpoint: mean survival time, dose: 200.0 mg/kg/injection, schedule: Q01DX009 (ip), vehicle: acetone) was 2 of 6.
For `O=C(CCCC(Br)c1ccccc1)c1ccccc1` (stereo not given), the survivor count [8] was 6 of 6.
In the case of `CC1(C)C2CC=C(CCOC(=S)S)C1C2.[Ni]` (stereo not given), the survivor count [3] is reported as 6 of 6.
For `Cc1ccc(S(=O)(=O)OCOS(=O)(=O)c2ccc(C)cc2)cc1`, the T/C (T/C endpoint: median survival time, dose: 400.0 mg/kg/injection, schedule: Q01DX009 (ip), vehicle: Klucel (hydroxypropylcellulose) (HPC)) was 132 and 136 % of control.
`OC12Cc3ccccc3C1=NN(c1ccccc1)C2c1ccccc1` (stereo not given) was tested, and the survivor count [6] was 6 of 6.
